Laboratory results taken from the supplement of paper PMC4604168 (melanoma cell lines).
The other results are listed elsewhere or left out. Many values rest on one well or one pass, so single values are uncertain.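 Imaging used 1,536-well plates; nuclei positive for cleaved PARP by antibody were divided by total DNA-stained nuclei to yield the apoptosis fraction. Doses for screening kept most cells viable, and cell lines differ markedly in resting and induced cleaved-PARP levels.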

Experiments:
Test in all cases: cleaved PARP positive nuclei fraction relative to DMSO control; melanoma cells; higher = more apoptosis
Conditions in all cases: library dose: low library concentration; 72 h
[1] = test system: CBRC034 (line from a melanoma biopsy)
[2] = test system: COLO792
[3] = test system: COLO800
[4] = test system: COLO829
[5] = test system: G361
[6] = test system: IPC-298
[7] = test system: IST-MEL1
[8] = test system: LB2518-MEL
[9] = test system: LOXIMVI

Row | SMILES | cleaved PARP positive nuclei fraction [1] | cleaved PARP positive nuclei fraction [2] | cleaved PARP positive nuclei fraction [3] | cleaved PARP positive nuclei fraction [4] | cleaved PARP positive nuclei fraction [5] | cleaved PARP positive nuclei fraction [6] | cleaved PARP positive nuclei fraction [7] | cleaved PARP positive nuclei fraction [8] | cleaved PARP positive nuclei fraction [9]
1 | COc1ccc2c(c1)CCC1C2CCC2(C)C(NCCCCCCN3C(=O)C=CC3=O)CCC12 (stereo not drawn) + COc1ccc(-c2ccc3c(N4CCOCC4)nc(N4C[C@@H](C)O[C@@H](C)C4)nc3n2)cc1CO [KU0063794] (first compound 0.4 µM, partner dose 0.02 µM) | 66.2% | 97.3% | 106% | 33.7% | 122% | 69% | 47% | 93.3% | 68.3%
2 | O=C(O)c1ccc(-c2c[nH]c3ncc(-c4ccccc4)cc23)cc1C1CCCC1 + COC(=O)c1sccc1S(=O)(=O)Nc1ccc(Nc2ccccc2)cc1OC [GSK0660] (first compound 0.16 µM, partner dose 1 µM) | 46.5% | 162% | 76.6% | 129% | 92.9% | 130% | 67.9% | 84.5% | 153%
3 | O=C(O)C(=O)Nc1sc2c(c1C(=O)O)CCNC2 + CC(C)CCN1c2nc(Nc3cc(F)c(O)c(F)c3)ncc2N(C)C(=O)C1C [BID1870] (first compound 1.66667 µM, partner dose 0.2 µM) | 64.5% | 115% | 158% | 112% | 108% | 84% | 80.5% | 77.1% | 24.5%
4 | O=C(O)c1ccc(-c2c[nH]c3ncc(-c4ccccc4)cc23)cc1C1CCCC1 + O=S(=O)(c1ccccc1)N(CC(F)(F)F)c1ccc(C(O)(C(F)(F)F)C(F)(F)F)cc1 [T0901317] (first compound 0.16 µM, partner dose 1.4 µM) | 94.3% | 41.6% | 202% | 91.3% | 148% | 132% | 25.8% | 155% | 73.2%
5 | c1cc(-c2cnn3cc(-c4ccc(OCCN5CCCCC5)cc4)cnc23)ccn1 [Dorsomorphin] + O=c1cc(-c2cccc3c2Sc2ccccc2S3)oc(N2CCOCC2)c1 [KU55933] (first compound 0.4 µM, partner dose 1 µM) | 80.5% | 63.6% | 42.2% | 99.2% | 132% | 80.4% | 408% | 105% | 2850%
6 | N#Cc1c(O)c2c(-c3ccc(-c4ccccc4O)cc3)csc2[nH]c1=O + Oc1nc(-c2ccc(C(F)(F)F)cc2)nc2c1CSCC2 [XAV939] (first compound 2 µM, partner dose 2 µM) | 26% | 134% | 121% | 81.2% | 130% | 326% | 134% | 85.2% | 543%
7 | CN(NC(=O)CC(=O)NN(C)C(=S)c1ccccc1)C(=S)c1ccccc1 + COc1cc2ncnc(Nc3ccc(Oc4ccccc4)cc3)c2cc1OC [SrcI1] (first compound 0.006 µM, partner dose 2 µM) | 117% | 188% | 237% | 144% | 126% | 105% | 44.8% | 286% | 64.4%
8 | NCC(=O)Nc1ccc(-n2nc(C(F)(F)F)cc2-c2ccc3c(ccc4ccccc43)c2)cc1 + O=C(O)C(=O)Nc1sc2c(c1C(=O)O)CCNC2 [TCS401] (first compound 1 µM, partner dose 1.66667 µM) | 79.3% | 129% | 198% | 81.3% | 60.2% | 101% | 64.6% | 165% | 78.2%
9 | O=C(O)c1ccc(-c2c[nH]c3ncc(-c4ccccc4)cc23)cc1C1CCCC1 + O=C(Nc1ccccc1)c1cc([N+](=O)[O-])ccc1Cl [GW9662] (first compound 0.16 µM, partner dose 2 µM) | 82.5% | 78.7% | 138% | 219% | 141% | 83.1% | 39.2% | 238% | 124%
10 | COc1ccc2c(c1)CCC1C2CCC2(C)C(NCCCCCCN3C(=O)C=CC3=O)CCC12 (stereo not drawn) + O=c1cc(-c2cccc3c2Sc2ccccc2S3)oc(N2CCOCC2)c1 [KU55933] (first compound 0.4 µM, partner dose 1 µM) | 87% | 143% | 111% | 80.6% | 106% | 169% | 114% | 66.1% | 63%
11 | COc1cc(N2CCC(N3CCN(C)CC3)CC2)ccc1Nc1ncc(Cl)c(Nc2ccccc2S(=O)(=O)C(C)C)n1 + Cn1cc(/C=C2\C(=O)Nc3cccnc32)c2ccccc21 [GW441756] (first compound 0.08 µM, partner dose 0.4 µM) | 150% | 103% | 55.5% | 61.6% | 91.9% | 104% | 174% | 70.8% | 37%
12 | CCc1ccc(CCOc2ccc(CC3SC(=O)NC3=O)cc2)nc1 (stereo not drawn) [pioglitazone] + COc1cc2ncnc(Nc3ccc(Oc4ccccc4)cc3)c2cc1OC [SrcI1] (first compound 2 µM, partner dose 2 µM) | 170% | 53.5% | 97.2% | 76.5% | 31.6% | 130% | 87% | 61.5% | 2830%

Full records as entered above. Order of values: cleaved PARP positive nuclei fraction [1] | cleaved PARP positive nuclei fraction [2] | cleaved PARP positive nuclei fraction [3] | cleaved PARP positive nuclei fraction [4] | cleaved PARP positive nuclei fraction [5] | cleaved PARP positive nuclei fraction [6] | cleaved PARP positive nuclei fraction [7] | cleaved PARP positive nuclei fraction [8] | cleaved PARP positive nuclei fraction [9]
N#Cc1c(O)c2c(-c3ccc(-c4ccccc4O)cc3)csc2[nH]c1=O + Oc1nc(-c2ccc(C(F)(F)F)cc2)nc2c1CSCC2 [XAV939] (first compound 2 µM, partner dose 2 µM) in the list: 26% | 134% | 121% | 81.2% | 130% | 326% | 134% | 85.2% | 543%
CCc1ccc(CCOc2ccc(CC3SC(=O)NC3=O)cc2)nc1 (stereo not drawn) [pioglitazone] + COc1cc2ncnc(Nc3ccc(Oc4ccccc4)cc3)c2cc1OC [SrcI1] (first compound 2 µM, partner dose 2 µM) in the list: 170% | 53.5% | 97.2% | 76.5% | 31.6% | 130% | 87% | 61.5% | 2830%
